The list shows only some results of the screen, not a fair sample: it gathers tests that were run many times, whatever their T/C, doses with no T/C, and many T/C values between a quarter and a half above the control. Other doses and runs of a compound stand elsewhere. T/C is the treated group as % of the vehicle group. Schedules are NCI's codes, read here as Q, the interval in days (D) or hours (H), X, the number of doses. Some T/C values carry the count of animals alive at the toxicity check (mostly the fifth day); where none is given, no animal had died by that day. Some doses have a count of surviving animals in place of a T/C: the source files T/C as zero there, which appears to mark a toxic dose or a test without result, not a measured value. Survivors were counted at the toxicity check, usually on the fifth day, unless a day is given; later deaths do not show. Some entries were tested several times; their values stand side by side, smallest first.
Tested on: CD8F1 mice, subcutaneous mammary adenocarcinoma, T/C%
Experiment: NCI In Vivo Anticancer Drug Screen. Data for tumor model Mammary Adenocarcinoma CD8F1 (subcutaneous) in CD8F1
Conditions: higher T/C = larger tumour
How it was run: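 Ratio of treated to vehicle-control outcome, based on either survival or tumor size, in mice bearing transplantable tumors given the test compound.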

[1] = T/C endpoint: median tumor weight change, dose: 500.0 mg/kg/injection, schedule: Q01DX001 (ip), vehicle: saline with Tween-80, evaluated on day 28
[2] = T/C endpoint: median tumor weight change, dose: 1000.0 mg/kg/injection, schedule: Q01DX001 (ip), vehicle: saline with Tween-80
[3] = T/C endpoint: median tumor weight (est.), dose: 12.5 mg/kg/injection, schedule: Q07DX005 (ip), vehicle: saline with Tween-80, evaluated on day 30
[4] = T/C endpoint: median tumor weight (est.), dose: 50.0 mg/kg/injection, schedule: Q07DX005 (ip), vehicle: saline with Tween-80, evaluated on day 30
[5] = T/C endpoint: median tumor weight change, dose: 500.0 mg/kg/injection, schedule: Q01DX001 (ip), vehicle: saline with Tween-80
[6] = T/C endpoint: median tumor weight (est.), dose: 50.0 mg/kg/injection, schedule: Q07DX005 (ip), vehicle: saline, evaluated on day 30
[7] = T/C endpoint: median tumor weight (est.), dose: 400.0 mg/kg/injection, schedule: Q07DX005 (ip), vehicle: saline
[8] = T/C endpoint: median tumor weight change, dose: 250.0 mg/kg/injection, schedule: Q01DX001 (ip), vehicle: saline with Tween-80
[9] = T/C endpoint: median tumor weight change, dose: 2000.0 mg/kg/injection, schedule: Q01DX001 (ip), vehicle: saline with Tween-80

With CC12CC(C(=O)O)C3(O)CC(C)(C1)CC(C)(C2)C3 (stereo not drawn) (tested in a mixture with another compound) the T/C (T/C endpoint: median tumor weight (est.), dose: 100.0 mg/kg/injection, schedule: Q07DX005 (ip), vehicle: Klucel (hydroxypropylcellulose) (HPC), evaluated on day 30) was 125 % of control.

CN(Cc1cnc2nc(N)nc(N)c2n1)c1ccc(C(=O)N[C@@H](CCC(=O)O)C(=O)O)cc1 was tested, and the survivor count (T/C endpoint: mean tumor weight, dose: 8.0 mg/kg/injection, schedule: Q01DX009 (ip), vehicle: saline) was 6 of 10, the survivor count (T/C endpoint: mean tumor weight, dose: 250.0 mg/kg/injection, schedule: Q07DX003 (ip), vehicle: sodium bicarbonate) was 5 of 10 and the T/C (T/C endpoint: median tumor weight (est.), dose: 1.25 mg/kg/injection, schedule: Q07DX005 (ip), vehicle: sodium bicarbonate, evaluated on day 30) was 147 % of control. For the same compound, the T/C (T/C endpoint: median tumor weight (est.), dose: 20.0 mg/kg/injection, schedule: Q07DX005 (ip), vehicle: sodium bicarbonate, evaluated on day 30) was 125 % of control and the survivor count (T/C endpoint: median tumor weight (est.), dose: 160.0 mg/kg/injection, schedule: Q07DX005 (ip), vehicle: sodium bicarbonate) was 1 of 10 on day 30.

For BrC[P+](CBr)(CBr)CBr, the T/C (T/C endpoint: median tumor weight change, dose: 62.5 mg/kg/injection, schedule: Q01DX001 (ip), vehicle: saline with Tween-80, evaluated on day 28) was 138 % of control, the T/C [1] was 135 % of control and the survivor count [2] was 0 of 10 on day 28.

CSc1ncnc2c1ncn2C1OC(CO)C(O)C1O (stereo not drawn) was tested, and the survivor count (T/C endpoint: median tumor weight change, dose: 500.0 mg/kg/injection, schedule: Q01DX001 (ip), vehicle: saline + alcohol) was 0 of 10 on day 35.

With CC(C)C(N)C(=O)Nc1nncs1 (stereo not drawn) the survivor count (T/C endpoint: median tumor weight change, dose: 2000.0 mg/kg/injection, schedule: Q01DX001 (ip), vehicle: saline) was 0 of 10 on day 28.

In the case of CCC[P+](c1ccccc1)(c1ccccc1)c1ccccc1, the T/C (T/C endpoint: median tumor weight (est.), dose: 3.12 mg/kg/injection, schedule: Q07DX004 (ip), vehicle: saline with Tween-80, evaluated on day 26) is reported as 126 % of control and the survivor count (T/C endpoint: median tumor weight (est.), dose: 100.0 mg/kg/injection, schedule: Q07DX005 (ip), vehicle: saline with Tween-80) is reported as 1 of 10 on day 30.

COc1ccc(S(=O)(=O)N/N=C/C(=O)O)cc1 was tested, and the T/C [3] was 141 % of control and the T/C [4] was 149 % of control [9 of 10 alive].

In the case of O=C(Nc1ccccc1)c1c(O)[nH]c(=S)[nH]c1=O, the survivor count (T/C endpoint: median tumor weight change, dose: 225.0 mg/kg/injection, schedule: Q01DX001 (ip), vehicle: saline with Tween-80) is reported as 2 of 10 on day 28, the survivor count (T/C endpoint: median tumor weight change, dose: 450.0 mg/kg/injection, schedule: Q01DX001 (ip), vehicle: saline with Tween-80) is reported as 0 of 10 on day 28 and the survivor count (T/C endpoint: median tumor weight change, dose: 900.0 mg/kg/injection, schedule: Q01DX001 (ip), vehicle: saline with Tween-80) is reported as 0 of 10 on day 28.

With O=Cc1c(O)c2ccccc2[nH]c1=O the survivor count [5] was 6 of 10 on day 36 and the survivor count [2] was 0 of 10 on day 30 and 1 of 10 on day 36.

For CC[As](=O)(O)CC, the T/C (T/C endpoint: mean tumor weight, dose: 50.0 mg/kg/injection, schedule: Q07DX005 (ip), vehicle: saline, evaluated on day 35) was 132 % of control [8 of 10 alive], the T/C [6] was 141 % of control and the survivor count [7] was 0 of 10 on day 30.

With CN(C)C(=O)SC1=C(c2c(Cl)cccc2Cl)C(=O)c2ccccc21 the survivor count (T/C endpoint: median tumor weight change, dose: 500.0 mg/kg/injection, schedule: Q01DX001 (ip), vehicle: Klucel (hydroxypropylcellulose) (HPC)) was 6 of 10 on day 30.

In the case of CNC(=O)n1c(N)nc(-c2ccccc2)c1-c1ccccc1, the survivor count [8] is reported as 1 of 10 on day 38 and the survivor count [5] is reported as 0 of 10 on day 38.

In the case of COc1ccc(C(=O)c2no[n+]([O-])c2C(=O)c2ccc(OC)cc2)cc1, the survivor count [5] is reported as 2 of 10 on day 31, the survivor count [2] is reported as 0 of 10 on day 31 and 1 of 10 on day 25 and the survivor count [9] is reported as 0 of 10 on day 25 and 0 of 10 on day 31.

For CN1C(=O)C(=Cc2ccc(O)cc2)C(=O)N(C)C1=O, the T/C (T/C endpoint: median tumor weight change, dose: 125.0 mg/kg/injection, schedule: Q01DX001 (ip), vehicle: saline with Tween-80, evaluated on day 28) was 149 % of control, the T/C [1] was 137 % of control and the survivor count [2] was 0 of 10 on day 28 and 1 of 10 on day 35. For the same compound, the survivor count [9] was 0 of 10 on day 35 and 2 of 10 on day 28.

For C[N+](C)(C)c1ncnc2nc[nH]c12, the T/C [6] was 136 % of control.

In the case of NNC(=O)c1ccncc1, the survivor count (T/C endpoint: median tumor weight change, dose: 250.0 mg/kg/injection, schedule: Q01DX001 (ip), vehicle: saline) is reported as 0 of 10 on day 28, the survivor count (T/C endpoint: median tumor weight change, dose: 500.0 mg/kg/injection, schedule: Q01DX001 (ip), vehicle: saline) is reported as 0 of 10 on day 28 and the survivor count (T/C endpoint: median tumor weight change, dose: 1000.0 mg/kg/injection, schedule: Q01DX001 (ip), vehicle: saline) is reported as 0 of 10 on day 28.

With O=C(Oc1ccccc1)c1cc(O)c(O)c(O)c1 the T/C (T/C endpoint: median tumor weight change, dose: 75.0 mg/kg/injection, schedule: Q01DX001 (ip), vehicle: suspension in saline, evaluated on day 32) was 134 % of control, the survivor count (T/C endpoint: median tumor weight change, dose: 600.0 mg/kg/injection, schedule: Q01DX001 (ip), vehicle: suspension in saline) was 1 of 10 on day 32 and the survivor count (T/C endpoint: median tumor weight change, dose: 1200.0 mg/kg/injection, schedule: Q01DX001 (ip), vehicle: suspension in saline) was 1 of 10 on day 32.

For CCCCCCCCCCCCCC#CC(=O)O, the survivor count [8] was 1 of 10 on day 36, the survivor count [5] was 5 of 10 on day 36 and the survivor count [2] was 0 of 10 on day 36 and 3 of 10 on day 29.

Cc1cc2nc3c(=O)[nH]c(=O)nc-3n(CC(O)C(O)C(O)C(O)CO)c2cc1C (stereo not drawn) was tested, and the T/C (T/C endpoint: median tumor weight (est.), dose: 50.0 mg/kg/injection, schedule: Q07DX005 (ip), vehicle: suspension in saline, evaluated on day 30) was 131 % of control and the survivor count (T/C endpoint: median tumor weight (est.), dose: 1600.0 mg/kg/injection, schedule: Q07DX005 (ip), vehicle: suspension in saline) was 2 of 10 on day 30.

For c1ccc([C@H]2CN3CCSC3=N2)cc1, the T/C (T/C endpoint: median tumor weight (est.), dose: 25.0 mg/kg/injection, schedule: Q07DX005 (ip), vehicle: saline, evaluated on day 34) was 131 % of control.

C=C1C(=O)OCC2C(C(=O)O)=CC3C(C)C(C)=CC123 (stereo not drawn) was tested, and the T/C (T/C endpoint: median tumor weight (est.), dose: 10.0 mg/kg/injection, schedule: Q07DX005 (ip), vehicle: Klucel (hydroxypropylcellulose) (HPC), evaluated on day 30) was 134 % of control, the survivor count (T/C endpoint: median tumor weight (est.), dose: 160.0 mg/kg/injection, schedule: Q07DX005 (ip), vehicle: Klucel (hydroxypropylcellulose) (HPC)) was 2 of 10 on day 30 and the survivor count (T/C endpoint: median tumor weight (est.), dose: 320.0 mg/kg/injection, schedule: Q07DX005 (ip), vehicle: Klucel (hydroxypropylcellulose) (HPC)) was 0 of 10 on day 30 and 0 of 10 on day 32.

CN(C)CC(Cl)CCl (stereo not drawn) was tested, and the T/C (T/C endpoint: mean tumor weight, dose: 50.0 mg/kg/injection, schedule: Q07DX006 (ip), vehicle: saline, evaluated on day 42) was 135 % of control and the survivor count [7] was 0 of 6 on day 30.

With Oc1cc2ccccc2c(-c2c(O)c(O)cc3ccccc23)c1O the T/C [3] was 138 % of control and the T/C [4] was 145 % of control.

— PubChem BioAssay AID220 (DTP/NCI, 2004)
